Measurements as given in PubChem BioAssay AID540276 (National Center for Advancing Translational Sciences (NCATS), 2011).
Among all 300,000 compounds or so, about 5,400 (1.8%) were called active. Inconclusive means that the source gave no clear call. Such entries were picked first, then a sample of the others. The call rests on the fitted dose curve; tested in HEK293 cells. Potencies beside an inconclusive call are fits to weak or partial responses and may not hold up.

test: qHTS for inhibitors of binding or entry into cells for Marburg Virus; settings: Marburg virus pseudotyped entry inhibition, cell reporter; series mostly up to 37.8 µM
Potency means the concentration at half of the fitted maximal effect.

SMILES	Potency
O=[N+]([O-])C(/C=C(\Cl)[N+](=O)[O-])=C1N(Cc2ccc(Cl)nc2)CCN1Cc1ccc(Cl)nc1	inactive
CCOc1ccc(-c2cnc3n2CCCCC3)cc1	inconclusive: 6.31 µM [inhibitor, single point]
COc1ccc(/C(N)=N/OC(=O)c2ccc(Br)o2)cc1	inconclusive: 11.2 µM [activator, partial curve]
CCCC[n+]1ccn(-c2nc3ccccc3nc2[N-]S(=O)(=O)c2ccccc2)c1	inactive
COc1cc(/C=C/c2ccc3cccc(O)c3n2)cc(OC)c1OC	inconclusive: 6.31 µM [inhibitor, single point]
Nn1c(COc2ccccc2)nnc1SC(F)F	inactive
Cc1cccc(N2CCN(C(=O)c3ccc(Cl)c(S(=O)(=O)NCc4ccco4)c3)CC2)c1C	inconclusive: 6.51 µM [inhibitor, partial curve, poor fit]
CC(C)(C)C(=O)NNc1nc(-c2ccccc2)c2cc(Br)ccc2n1	inconclusive: 35.5 µM [inhibitor, single point]
CCCCNC(=O)CSc1nc2ccc(NC(=O)CSc3nnc(N)s3)cc2s1	inconclusive: 5.62 µM [inhibitor, single point]
O=C(c1cccs1)N1CCC(c2nc3c(nnn3Cc3ccccc3)c(=O)[nH]2)CC1	inactive
COc1cccc(C(=O)Nc2cccc(-c3nnc(-c4ccco4)o3)c2)c1	inconclusive: 35.5 µM [inhibitor, single point]
CCn1c(SCC(=O)Nc2oc(C)c3c(C)n[nH]c(=O)c23)nc2sc(C)c(C)c2c1=O	inconclusive: 1.26 µM [activator, partial curve]
CC1CCC(NC(=O)c2ccc(CSc3nc4ccncc4n3Cc3ccc(F)cc3)cc2)CC1 (stereo not drawn)	inconclusive: 11.2 µM [inhibitor, partial curve, poor fit]
Cc1cc(C)cc(Oc2nc(C(F)(F)F)nc3ccccc23)c1	inconclusive: 35.5 µM [inhibitor, single point]
CC(=O)c1ccc(OCc2cc(C(=O)N(C)Cc3ncc(C)[nH]3)no2)cc1	inactive
Cc1cc(NS(=O)(=O)c2ccc(NC(=O)COc3ccc(C#N)cc3)cc2)nc(C)n1	inactive
Cc1cccc(OCC(=O)N/N=C2/SCC(=O)N2Cc2ccco2)c1	inconclusive: 1.78 µM [inhibitor, partial curve, poor fit]
N#Cc1c(-n2cccc2/C=N/O)sc2c1CCCC2	inactive
Cc1ccccc1CN(C)C(=O)CNC(=O)c1ccc2ccccc2c1	inactive
Cc1cccc(N/C(N)=N/c2nc(C)c(Cc3ccccc3)c(=O)[nH]2)c1	inconclusive: 12.6 µM [inhibitor, partial curve, poor fit]
CSCC[C@H](NC(=O)OC(C)(C)C)C(=O)NCC1CCC(C(=O)N[C@@H](Cc2ccccc2)C(=O)O)CC1 (stereo partly drawn)	inconclusive: 3.16 µM [inhibitor, single point]
CC(C)(C)c1nc(SCC(=O)Nc2nc3c(s2)CCCC3)c2ccccc2n1	active: 1.03 µM
Oc1ccc(N2CCN(c3ncnc4sc5c(c34)CCC5)CC2)cc1	inconclusive: 35.5 µM [inhibitor, single point]

SMILES	Potency
FC(F)(F)c1cccc(Sc2cc(C(F)(F)F)nc(-c3ccccn3)n2)c1	inconclusive: 14.6 µM [inhibitor, single point]
Nc1c(Cl)ncnc1N/N=C/c1ccnc2ccccc12	inactive
O=C(Nc1cccc(-c2cnc3ccccc3n2)c1)C1CC(=O)N(c2ccccc2)C1 (stereo not drawn)	inconclusive: 11.2 µM [inhibitor, single point]
COc1ccc(Cc2noc(CN3CCN(Cc4cccc(Cl)c4)CC3)n2)cc1OC	inconclusive: 20 µM [inhibitor, single point]
O=C(NC(=S)NNC(=O)c1ccc(Cl)cc1Cl)c1cccnc1	inconclusive: 0.259 µM [activator, single point]
Cc1csc(=O)n1CCC(=O)OCC(=O)Nc1cccc(C#N)c1	inactive
S=C(Nc1ccccn1)c1ccccn1	inconclusive: 35.5 µM [inhibitor, single point]
Cc1ccc2c(C)nc(Nc3nc(CSc4nnnn4-c4ccccc4)cc(=O)[nH]3)nc2c1	inactive
CCc1c(C)[nH]c2nc3ccccc3n2c1=O	inconclusive: 29.1 µM [activator, single point]
CCCN(CCC)C(=O)CC(c1ccc(F)cc1)c1ccco1 (stereo not drawn)	inconclusive: 20 µM [inhibitor, partial curve, poor fit]
O=C(NC(=S)Nc1ccc2ncccc2c1)c1ccccc1	inconclusive: 1.78 µM [activator, single point]
CSc1ccccc1OCc1cc(C(=O)NCCc2ccco2)no1	inconclusive: 0.794 µM [activator, full curve, poor fit]
CC(C)C(OC(=O)c1ccco1)C(=O)NCc1ccco1 (stereo not drawn)	inactive
CCCn1c(SCC(=O)N2CCN(C(=O)c3ccco3)CC2)nc2ccccc2c1=O	inconclusive: 0.891 µM [inhibitor, full curve, poor fit]
CCOc1ccc(NS(=O)(=O)c2ccc3c(c2)CCN3C(=O)C2CCC2)cc1	inconclusive: 32.6 µM [inhibitor, single point]
Cn1c(=NC(=O)C2=NNC(=O)CC2)sc2ccccc21	inactive
COc1cc(OC)c(OC)cc1/C=C/c1ccnc2ccccc12	inconclusive: 1.26 µM [inhibitor, full curve, poor fit]
COc1ccc(NC(=O)COc2ccc(/C=C/c3cc[n+](C)cc3)cc2OC)cc1	inactive
CCN1CCN(c2ccc(NC(=O)c3ccc4c(c3)[nH]c(=O)n4Cc3ccc(F)cc3)cc2)CC1	inconclusive: 20 µM [inhibitor, partial curve, poor fit]
CCn1cc(/C=N\NC(=O)c2cc(-c3ccccc3OC)nc3ccccc23)c(C)n1	inconclusive: 29.1 µM [inhibitor, partial curve, poor fit]
CN1/C(=C\C(=O)c2cccc([N+](=O)[O-])c2)Sc2ccccc21	inactive
Cc1ccccc1-c1nc(Cc2ccc(Cl)cc2)no1	inactive
S=C(N/N=C/c1ccc2c(c1)OCO2)NC1CC2CCC1C2 (stereo not drawn)	inconclusive: 11.2 µM [inhibitor, single point]

Sorted by formula weight (low to high): part of the list above
SMILES	Potency
Cn1c(=NC(=O)C2=NNC(=O)CC2)sc2ccccc21	inactive
CC(C)C(OC(=O)c1ccco1)C(=O)NCc1ccco1 (stereo not drawn)	inactive
O=C(Nc1cccc(-c2cnc3ccccc3n2)c1)C1CC(=O)N(c2ccccc2)C1 (stereo not drawn)	inconclusive: 11.2 µM [inhibitor, single point]

Going on with the list:

SMILES	Potency
N#Cc1ccc(N2CCN(c3ccc(F)cc3)CC2)cc1	inconclusive: 29.1 µM [inhibitor, single point]
CCOC(=O)N/N=C1/C[C@@H](O)[C@@H](O)[C@@H]2[C@@H]3C(=O)N(c4cccc(Oc5ccccc5)c4)C(=O)[C@H]3CC[C@H]12	inconclusive: 2.37 µM [activator, partial curve, poor fit]
COc1ccccc1C(=O)NC(CCSC)C(=O)N1CCC(Cc2ccccc2)CC1 (stereo not drawn)	inconclusive: 22.4 µM [inhibitor, partial curve, poor fit]
COc1ccc(NC(=O)[C@H](Cc2ccccc2)N2Cc3ccccc3C2=O)cc1OC	inconclusive: 31.6 µM [inhibitor, single point]
CC(=O)Cn1ncc(Br)c(Br)c1=O	inconclusive: 11.2 µM [inhibitor, partial curve, poor fit]
Cc1cccc(NC(=O)c2ccc(C(=O)c3ccccc3)cc2)n1	inactive
C=CCn1c(O)c(N=NC(=S)Nc2ccc(OC)cc2)c2ccccc21	inconclusive: 4.47 µM [inhibitor, full curve]
Cc1ccc2c(c1)cc(CN(Cc1ccc3c(c1)OCO3)C(=O)c1ccccc1)c1nnnn12	inconclusive: 23.1 µM [inhibitor, partial curve, poor fit]
CCOc1ccc(NC(=O)CN(C)C(=O)c2ccc(COc3ccccc3)o2)cc1OCC	inactive
O=C(Cc1csc(Nc2nc(=S)[nH]c3ccccc23)n1)NCc1ccccc1Cl	inconclusive: 20.6 µM [inhibitor, partial curve]
CC(=O)NCCN1C(=O)S/C(=C\c2cccs2)C1=O	inactive
CCOc1ccc(N(CC(=O)NC2CCCC2)C(=O)c2ccc(C)s2)cc1	inconclusive: 35.5 µM [inhibitor, single point]
O=C(NCc1ccccc1CN1CCCC1)C1CCN(S(=O)(=O)c2ccc(F)c(F)c2)CC1	inconclusive: 15.8 µM [inhibitor, partial curve, poor fit]
CCOC(=O)c1snc(C(=O)NC2CCCCC2)c1N	inconclusive: 1.03 µM [activator, partial curve, poor fit]
CCOC(=O)C(C)Oc1ccc(NC(=O)C(Cl)(Cl)Cl)cc1 (stereo not drawn)	inconclusive: 1.58 µM [activator, partial curve, poor fit]
COc1ccccc1NC(=O)COC(=O)c1ccccn1	inactive
COC(=O)CSc1cc(SCC(=O)OC)c(C#N)c(SCC(=O)OC)c1	inconclusive: 12.6 µM [inhibitor, single point]
CC1=C(C#N)C(=O)NC(=O)/C1=C\c1ccc(-c2cc(C)c(C)cc2[N+](=O)[O-])o1	inactive
COc1ccc(Nc2ccccc2C(=O)O)cc1	inconclusive: 8.91 µM [activator, partial curve, poor fit]
COC[C@H]1O[C@@H](c2c(OC)cc(OC)cc2OC)[C@H](OC)[C@@H](OC)[C@H]1OC	inactive
O=S1(=O)N=C(Nc2nncs2)c2ccccc21	inactive
CCOc1ccc(Cl)cc1CNCCc1ccc(F)cc1	inconclusive: 10 µM [inhibitor, partial curve, poor fit]
